The record followed here is PubChem BioAssay AID1347423 (Functional Genomics Laboratory (NCATS/FGL), 2020).

The campaign covered roughly 52,000 sequences. About 210 (0.4%) were called active.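 The calls were made as follows: active = gene whose silencing raises cell survival under the drug, median off-target-corrected z-score across its silencing RNAs 2 or more; inactive = the rest.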 The list shows a part of the results.

This assay can be described thus: Resistance to Poly (ADP-Ribose) Polymerase inhibitor: Gene Identification via Genome-wide siRNA Screen. The following applies: mouse BRCA2 R2336H ES cells, olaparib, CellTiter-Glo viability; stronger effect = higher value. The procedure, abridged:
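Mouse BRCA2 R2336H ES cells were reverse-transfected with siRNA (20 nM final), treated at 48 h with 500 nM olaparib, and read by CellTiter-Glo after 72 h. Scores: MAD-based z per siRNA, median per gene, seed off-target correction.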
For “GGGAGAUUCAUUUUCCCAGTT against 4732452J19Rik”, the z-score was inactive: 0.725.
Regarding GGAUGAGUGAAGACUUAGCTT against Sag, the z-score is inactive: -0.0608.
For GGCAGAAGUUACAAAAGAATT against H47 the value was inactive: -1.49.
Then GGAACAGCAGCAGAGUGAATT against Gkap1, with inactive: -2.2.
Then CGGAUUGAGUAAUUAUUUCTT against Zcwcc2, with inactive: 0.894; and GCAUAACUAACCACAUCAATT against Sema5a, with inactive: 0.467.
Take CCUACUCAGUGACAAAGGATT against Olfr366: the z-score is inactive: -1.86.
For UAGGAUUUAGCAAGCCACCTT against BC038328 the value was inactive: -0.447; for GCGGAAGCGUGAAUCCAAATT against MGC67569, inactive: -0.309.
For CCCUAAUCAAGUUUGCUAUTT against Armc7 the value was inactive: 1.42; for GGUGGACUUGUACCUCUUCTT against Tnks, inactive: 0.29.
Then GGGACUUAUACUGAAAUAATT against Eif2ak4, with inactive: -2.42; and “GGUUGCGUGUGGUUACUAUTT against 1700056O17Rik”, with inactive: -1.64.
Regarding CCAAUUACCGAAUAAGUUCTT against Map3k12, the z-score is inactive: 0.0421.
For GGUGGUUUGUGAUGAAAAUTT against Pabpc1 the value was inactive: -3.26.
GGAAGGUUCAGAAGUGACATT against Strm: the z-score is inactive: -0.785.
Turning to “GGACUUUGUAGACAACGUGTT against 1810038H16Rik”, the z-score was inactive: 0.00808.
For the sequence CCACAGACAGUUAUUACUGTT against Emr1, the z-score is inactive: -1.55.
For GGUUUUCCUGUUAUUUUCUTT against Mapre2 the value was inactive: 1.14.
Turning to GGUAUACCAAGAAGCUAAGTT against Kctd14, the z-score is inactive: 1.67.
For “GGCGCAGGGAAUAAUCUACTT against 6530421E24Rik” the value was inactive: 0.763; for CCUUUCAAGUUGUAGGCUGTT against BC028265, inactive: -0.639; for GGAUUGACAGUGUCAGUCUTT against Gnal, inactive: 0.5.
For GGAGAUACAAUGUGAAAAGTT against Odf2 the value was inactive: -2.12.
Then GGUACUGAUCAUGGAAUAUTT against Hibch, with inactive: -1.55; and GGGUUGCUAAUGGAGAUGGTT against Slc12a1, with inactive: -0.326.
As for “GCUGCUCAGCCAUACCUUGTT against 4921520L01Rik”, the z-score was inactive: -1.4.
Then “GGUUUUACCCUGUAAUACUTT against 1700012B09Rik”, with inactive: 0.0751; and GGAGGAUGAGGAUUUUGAUTT against Tce1, with inactive: 1.47.
Consider GGCCAUUAAUUACUACGAGTT against ttc21a, for which the z-score was inactive: 0.669.
On to GGGACUGGACCCAUACAAUTT against Cox5b, for which the z-score is inactive: -0.657.
Then CCCAUCAUCUUCCCAUUCGTT against Olfr146, with inactive: -0.426.
Then GGUGGACCUUUGAAAAAGCTT against Ifrg15, with inactive: -0.0982.
Then CCUUAACUGGCACAAUUGCTT against LOC238447, with inactive: -0.474.
For UCAUCUUACUCACAGUCUCTT against Tas2r118, the z-score was inactive: -0.609.
Then GGAAAUGAUGUGUUUCAGUTT against Fmo5, with inactive: 0.322; and GGAGCAAAGUGAUAAUUAUTT against Pcdhga8, with inactive: -0.0674; and “CCCAUUUAAAUACGGGAUUTT against 4932441K18”, with inactive: -1.8.
For GGACAAAACGUGCAAUAUGTT against AW548124 the value was inactive: 0.214; for “CCAUGUUCUUCUAUGGCUCTT against 0610041B22Rik”, inactive: 1.07; for “CGGUUCAGCUGUCAUUGAUTT against A630029G22Rik”, inactive: -0.495.
Then GGACAGAAAAACCUUCUAATT against Hexb, with inactive: 0.892; and “GCUGUGGUGUUAGAAAUAATT against 1700072E05Rik”, with inactive: 0.231.
GGUGAAGACGUGGUAUCAATT against Barx1: the z-score is inactive: 0.461.
For “GGUGUAUUGCAUCAUUUCUTT against 2310061B02Rik”, the z-score is inactive: 0.227.
For GCUAAGGAUUAGAAGGAAATT against Psme2 the value was inactive: 0.429; for “CCUGGUAUAUUACCGCUUCTT against 1110036O03Rik”, inactive: 0.708; for GGAAAGAGUGUGCAAACUCTT against Ly6d, inactive: 0.528.
For “GGUAAUAAACAGACAUAGATT against 2410141K09Rik” the value was inactive: 1.09; for GGUGAAAUAUGAGGAGUUUTT against Calm4, inactive: -0.343; for GGCUCAUGGUUAUUGUAAUTT against Olfr1198, inactive: -0.412.
Regarding GGAAAUGAUACAUUUGUGATT against Mre11a, the z-score is inactive: 0.126.
GGCUUGAAUAUUAAAGUGATT against Arhgef19: the z-score is inactive: 0.747.
Then GGGAAGAUUGAUUUUAUCGTT against Abcb11, with inactive: 0.927; and GGAUGAUGUUCUUAAUGCUTT against Slac2b, with inactive: -0.78.
Then CCCUAUUGUCAAUAUUCUATT against Nr1h5, with inactive: 0.713; and GCAUGUUUACCUCAAAGUGTT against Cd209e, with inactive: -0.323; and GCACUUCGGAUGGUUCGAGTT against Elovl1, with inactive: 1.84.
Then GCCUCGACCAGUUUAAUCATT against Loh11cr2a, with inactive: 0.135; and CGCAUUGGUAGCUUGGAUATT against Nmbr, with inactive: -1.4.
Consider GUCUGUAUUCCUAGAUUCCTT against Olfr794, for which the z-score was inactive: 0.287.
Consider CGGAUAACAAAAGUAGCAATT against MGC102419, for which the z-score is inactive: 1.82.
For “GGAGAGAGGAUAAGUCACATT against 2300003C06Rik” the value was inactive: -0.136.
For GGACGAUAAGCUCUCUCAGTT against Epb4.1l3 the value was inactive: 0.803.
Then GGCUCUCAAAACUUGCUGUTT against Wdr50, with inactive: 1.12.
“GGUAGUAGAGAUGUUUGAUTT against 2310040C09Rik”: the z-score is inactive: -0.307.
In the case of CCAGUCAAAUAUCCAUUAGTT against Abpg, the z-score is inactive: -1.08.
As for GCUCCUCCUAUAUGUGAAUTT against Cr2, the z-score is inactive: 0.394.
Consider GCUAAGGUACAUUUGUAGATT against Cebpd, for which the z-score is inactive: 1.37.
Consider GCAGGCCUAAGCCCAUUGATT against V1rb8, for which the z-score was inactive: -2.07.
For the sequence GGAUACUCCUCUGAGUAGUTT against BC051083, the z-score was inactive: 0.0677.
In the case of CCAUAUGGCUUGUGGCAGATT against Scn1b, the z-score is inactive: 0.809.
In the case of GGUGAUUGCUGAAGACGAGTT against Fbxw8, the z-score is inactive: -2.05.
For the sequence GGCACCAUCUACGACUAUGTT against Gpx5, the z-score is inactive: -1.73.
Then GGUGAAUCAGACAUACUAUTT against Rnut1, with inactive: -0.0602; and GGCCAAACAAGACCCAUCUTT against Ppil2, with inactive: -0.269; and “GGUGAAACAGAGCAGAAAATT against 0610039J04Rik”, with inactive: 0.0757.
Then GCAGCUCCUAAGAAGAUAATT against Samsn1, with inactive: -0.307.
Take GCAAGAUUCUUGAAAAGGATT against Gm50: the z-score was inactive: 1.11.
On to GCACAAGGAUUCUCGCUGUTT against Ext1, for which the z-score is inactive: 1.07.
With GGUGUUUGACCCUUCUUGCTT against Pqbp1, the z-score was inactive: 1.11.
As for “GGUCUUCAUGAAAACCCUCTT against 2610028L19Rik”, the z-score was inactive: -3.09.
Then CCUGUUUAUAAGUCAGAGATT against Zzz3, with inactive: -0.591.
On to CCUUUAACUUUCUCCUACCTT against AY078069, for which the z-score was inactive: 0.499.
For CGUGGAAGUAAACUCCCUUTT against Zfp112 the value was inactive: 0.644.
As to GGUCCUUACCAUCAAUCCUTT against Pgls, the z-score was inactive: 2.13.
Then AUGUCAGCGGCCCUAGAUGTT against LOC384813, with inactive: -1.14.
For GGAAAUGGACAUUGUAUUCTT against Serpina3k the value was inactive: -0.25.
Then “GGCCAACACUAACACAGACTT against 6330416G13Rik”, with inactive: -0.59; and AGAAGAUACCGAUCAAGCGTT against Ndnl2, with inactive: 0.356; and GAUUCUUGAGGAAUUUAGCTT against Syncrip, with inactive: 0.581.
As to GCCACGAUUGUUGUCAUGCTT against Rab25, the z-score was inactive: 0.0821.
In the case of GGAAUGUACCCAUAAAAGUTT against D7Rp2e, the z-score is inactive: -0.268.
In the case of GGAGAAGAGAAUAGAAGAATT against Ren1, the z-score is inactive: -1.02.
Then GGAGCAUUCACAUACUUACTT against Olfr944, with inactive: -0.295; and “GGUUUGUGUCUAAGGAAUUTT against B230308G19Rik”, with inactive: -0.754; and CGGAAAGACGAUGCUCAAUTT against Lztr1, with inactive: -0.713.
Then “GGUCCUUAAUGAGCCUGGATT against B230218L05Rik”, with inactive: 0.00126.
Turning to CCAGGUUGAUGAUUUCAACTT against Tbcc, the z-score is inactive: -0.243.
On to GGUUCACAAUGGAUUAUGATT against Lrrc25, for which the z-score is inactive: 0.63.
Consider CGAAAGCACACACGUAGAATT against Erdr1, for which the z-score was inactive: 0.349.
For GGAAAUCAGGAGUAAAAGUTT against Prkr the value was inactive: -1.04.
With GCACACGUUACAAUUACAGTT against Il8rb, the z-score is inactive: -0.0632.
For CCAUCAAUCAUCAUCGCCUTT against Slc27a2 the value was inactive: 1.3.
